Measured values published in paper doi:10.1101/2025.07.27.666936.
Like-named read-outs stand apart in the source and are kept apart here. No constants are given. Whether binding was seen depends on the method and setting. In cells and extracts the contact can be indirect. Some binding calls cover weakened binding; strength is not graded here.

Chains of the proteins cited; added tags and fusions are not shown. Lines headed by an entry give the natural chain unless they say otherwise; changes in a name come on top. Residues count along the entry.
UniProt P23458: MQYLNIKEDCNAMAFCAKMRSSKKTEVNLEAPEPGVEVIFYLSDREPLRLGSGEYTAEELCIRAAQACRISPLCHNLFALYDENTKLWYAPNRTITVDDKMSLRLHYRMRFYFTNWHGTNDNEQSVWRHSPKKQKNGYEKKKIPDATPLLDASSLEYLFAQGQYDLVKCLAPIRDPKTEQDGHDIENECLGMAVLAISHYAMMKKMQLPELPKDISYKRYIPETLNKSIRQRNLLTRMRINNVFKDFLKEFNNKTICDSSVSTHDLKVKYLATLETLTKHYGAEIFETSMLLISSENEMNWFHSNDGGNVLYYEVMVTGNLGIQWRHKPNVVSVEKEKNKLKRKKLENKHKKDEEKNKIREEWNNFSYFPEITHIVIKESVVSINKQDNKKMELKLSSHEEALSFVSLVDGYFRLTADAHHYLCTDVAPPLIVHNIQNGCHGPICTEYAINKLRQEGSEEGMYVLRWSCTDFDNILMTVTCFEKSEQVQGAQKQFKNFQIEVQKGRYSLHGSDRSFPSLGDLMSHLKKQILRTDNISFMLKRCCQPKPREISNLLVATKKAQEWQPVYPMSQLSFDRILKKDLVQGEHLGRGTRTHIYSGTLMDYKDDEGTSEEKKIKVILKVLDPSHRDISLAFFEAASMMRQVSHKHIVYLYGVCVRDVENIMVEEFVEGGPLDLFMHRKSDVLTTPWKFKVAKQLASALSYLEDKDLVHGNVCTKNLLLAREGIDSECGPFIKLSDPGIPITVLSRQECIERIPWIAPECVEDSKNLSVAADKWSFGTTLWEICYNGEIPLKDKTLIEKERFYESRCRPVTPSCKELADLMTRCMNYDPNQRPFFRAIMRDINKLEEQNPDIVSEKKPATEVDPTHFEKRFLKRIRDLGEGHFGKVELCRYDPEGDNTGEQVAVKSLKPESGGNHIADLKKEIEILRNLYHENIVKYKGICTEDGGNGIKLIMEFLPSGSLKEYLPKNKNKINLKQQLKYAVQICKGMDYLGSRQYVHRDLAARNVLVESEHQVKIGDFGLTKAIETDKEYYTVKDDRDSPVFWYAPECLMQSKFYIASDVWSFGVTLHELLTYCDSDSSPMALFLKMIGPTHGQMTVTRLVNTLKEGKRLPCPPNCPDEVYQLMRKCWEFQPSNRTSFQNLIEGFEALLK
UniProt O08586: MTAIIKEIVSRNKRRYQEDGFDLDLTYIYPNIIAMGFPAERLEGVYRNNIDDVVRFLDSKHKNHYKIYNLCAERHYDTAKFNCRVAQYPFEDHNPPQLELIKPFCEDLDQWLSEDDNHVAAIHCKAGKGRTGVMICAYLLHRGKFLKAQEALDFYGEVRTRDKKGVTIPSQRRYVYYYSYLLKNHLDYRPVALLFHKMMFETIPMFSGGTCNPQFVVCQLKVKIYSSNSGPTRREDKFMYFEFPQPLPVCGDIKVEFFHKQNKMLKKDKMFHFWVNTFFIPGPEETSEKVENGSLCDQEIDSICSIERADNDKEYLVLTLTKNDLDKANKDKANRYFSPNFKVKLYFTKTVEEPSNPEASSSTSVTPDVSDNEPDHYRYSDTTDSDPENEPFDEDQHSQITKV
UniProt P09055, residues 21-798: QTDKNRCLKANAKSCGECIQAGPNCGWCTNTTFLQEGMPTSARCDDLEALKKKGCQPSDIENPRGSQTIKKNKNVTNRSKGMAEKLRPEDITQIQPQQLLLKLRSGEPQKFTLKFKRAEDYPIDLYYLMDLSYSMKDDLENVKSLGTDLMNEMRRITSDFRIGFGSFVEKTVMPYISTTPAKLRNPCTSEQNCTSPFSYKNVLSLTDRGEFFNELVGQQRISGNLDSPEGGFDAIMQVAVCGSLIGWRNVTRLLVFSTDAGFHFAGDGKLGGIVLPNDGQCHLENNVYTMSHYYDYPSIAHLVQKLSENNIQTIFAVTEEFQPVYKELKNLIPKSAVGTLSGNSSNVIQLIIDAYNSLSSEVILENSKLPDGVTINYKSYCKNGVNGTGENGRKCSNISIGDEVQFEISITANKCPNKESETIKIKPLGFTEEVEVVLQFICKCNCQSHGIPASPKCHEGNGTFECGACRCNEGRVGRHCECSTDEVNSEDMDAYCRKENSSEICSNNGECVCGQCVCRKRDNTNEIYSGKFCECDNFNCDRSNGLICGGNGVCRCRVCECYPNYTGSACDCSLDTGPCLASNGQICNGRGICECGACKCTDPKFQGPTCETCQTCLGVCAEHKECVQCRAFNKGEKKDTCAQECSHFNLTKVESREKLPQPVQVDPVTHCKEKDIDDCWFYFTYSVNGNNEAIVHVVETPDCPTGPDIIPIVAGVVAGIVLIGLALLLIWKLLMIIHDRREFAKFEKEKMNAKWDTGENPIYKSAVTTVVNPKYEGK
UniProt P52332: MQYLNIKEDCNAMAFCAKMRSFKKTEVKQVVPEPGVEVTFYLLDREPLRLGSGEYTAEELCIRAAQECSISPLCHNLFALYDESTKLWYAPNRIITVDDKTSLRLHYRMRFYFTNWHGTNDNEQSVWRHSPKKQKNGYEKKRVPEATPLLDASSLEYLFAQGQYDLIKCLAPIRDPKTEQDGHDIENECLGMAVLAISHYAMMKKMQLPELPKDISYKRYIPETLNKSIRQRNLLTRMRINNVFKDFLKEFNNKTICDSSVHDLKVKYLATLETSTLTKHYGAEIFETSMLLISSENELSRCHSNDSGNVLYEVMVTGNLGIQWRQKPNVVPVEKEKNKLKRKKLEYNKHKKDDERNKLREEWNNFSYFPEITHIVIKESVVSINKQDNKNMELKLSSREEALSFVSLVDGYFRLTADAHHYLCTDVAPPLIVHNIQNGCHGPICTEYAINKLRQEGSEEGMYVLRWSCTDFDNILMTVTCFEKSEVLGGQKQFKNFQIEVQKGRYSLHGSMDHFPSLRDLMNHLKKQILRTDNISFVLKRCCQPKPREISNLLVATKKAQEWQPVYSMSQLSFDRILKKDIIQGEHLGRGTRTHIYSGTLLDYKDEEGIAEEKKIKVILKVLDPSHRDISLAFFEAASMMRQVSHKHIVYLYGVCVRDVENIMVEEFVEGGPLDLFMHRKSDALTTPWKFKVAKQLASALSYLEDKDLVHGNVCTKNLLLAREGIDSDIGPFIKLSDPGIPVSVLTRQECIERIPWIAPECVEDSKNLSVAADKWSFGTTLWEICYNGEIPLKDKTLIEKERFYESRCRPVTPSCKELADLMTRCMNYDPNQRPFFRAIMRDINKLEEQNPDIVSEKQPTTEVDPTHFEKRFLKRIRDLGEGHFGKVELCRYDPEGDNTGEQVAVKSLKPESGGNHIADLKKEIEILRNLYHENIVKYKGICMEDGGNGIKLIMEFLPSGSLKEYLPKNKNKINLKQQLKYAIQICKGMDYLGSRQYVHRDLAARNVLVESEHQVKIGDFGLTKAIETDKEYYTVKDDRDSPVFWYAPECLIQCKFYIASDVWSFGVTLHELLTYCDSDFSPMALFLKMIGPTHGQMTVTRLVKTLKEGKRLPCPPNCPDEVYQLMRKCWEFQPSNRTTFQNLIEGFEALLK
UniProt Q9R117: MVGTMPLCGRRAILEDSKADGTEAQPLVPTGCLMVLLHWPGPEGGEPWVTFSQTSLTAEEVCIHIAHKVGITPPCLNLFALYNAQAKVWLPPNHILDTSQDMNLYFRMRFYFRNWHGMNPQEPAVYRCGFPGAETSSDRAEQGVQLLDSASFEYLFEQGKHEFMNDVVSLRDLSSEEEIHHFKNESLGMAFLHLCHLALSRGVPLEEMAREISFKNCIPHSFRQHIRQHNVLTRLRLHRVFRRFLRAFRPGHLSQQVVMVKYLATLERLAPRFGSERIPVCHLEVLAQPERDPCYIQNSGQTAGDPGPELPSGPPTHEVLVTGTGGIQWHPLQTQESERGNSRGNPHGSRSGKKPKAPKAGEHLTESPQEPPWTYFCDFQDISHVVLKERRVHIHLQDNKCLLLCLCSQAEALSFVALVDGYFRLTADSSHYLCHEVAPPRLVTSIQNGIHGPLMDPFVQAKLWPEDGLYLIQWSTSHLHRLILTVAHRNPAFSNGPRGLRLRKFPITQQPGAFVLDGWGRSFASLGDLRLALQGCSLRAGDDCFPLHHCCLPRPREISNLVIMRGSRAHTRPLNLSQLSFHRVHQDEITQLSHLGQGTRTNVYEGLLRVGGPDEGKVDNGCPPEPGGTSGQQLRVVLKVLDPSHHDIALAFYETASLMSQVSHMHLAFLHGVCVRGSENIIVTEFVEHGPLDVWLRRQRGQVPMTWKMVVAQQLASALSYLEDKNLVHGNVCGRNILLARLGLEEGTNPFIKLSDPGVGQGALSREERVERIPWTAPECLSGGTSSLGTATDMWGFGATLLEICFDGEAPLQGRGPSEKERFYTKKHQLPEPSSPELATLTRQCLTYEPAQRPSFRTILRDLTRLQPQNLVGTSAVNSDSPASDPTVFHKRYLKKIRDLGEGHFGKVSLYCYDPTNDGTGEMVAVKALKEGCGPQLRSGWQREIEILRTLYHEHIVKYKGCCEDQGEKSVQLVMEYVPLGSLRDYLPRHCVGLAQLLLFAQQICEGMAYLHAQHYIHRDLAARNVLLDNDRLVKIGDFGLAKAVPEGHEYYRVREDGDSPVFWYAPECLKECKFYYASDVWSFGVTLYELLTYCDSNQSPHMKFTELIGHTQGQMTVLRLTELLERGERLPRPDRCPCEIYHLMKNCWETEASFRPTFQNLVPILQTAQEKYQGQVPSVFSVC

Assays:
Assay in all cases: co-IP
[1] = biological target: T1, caveolin-1 (endogenous, mouse lung endothelial cells) (mouse (endogenous in MLEC)) (UniProt P49817)
T1 sequence: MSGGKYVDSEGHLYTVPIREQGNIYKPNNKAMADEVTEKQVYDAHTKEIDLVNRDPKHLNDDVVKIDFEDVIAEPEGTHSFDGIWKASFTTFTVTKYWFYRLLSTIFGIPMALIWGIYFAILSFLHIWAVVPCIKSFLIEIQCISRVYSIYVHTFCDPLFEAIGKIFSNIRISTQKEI

Cav1(F92A/V94A)-mRFP = Cav1(F92A/V94A)-mRFP (UniProt Q03135)
Cav1(W98A)-mRFP = Cav1(W98A)-mRFP (UniProt Q03135)
Cav1(WT)-mRFP = Cav1(WT)-mRFP (UniProt Q03135)
[2] = biological target: T1, caveolin-1 (endogenous, mouse lung endothelial cells) (mouse (endogenous in MLEC)); remark: listed apart in the source

ALFA-tagged JAK1 Δ1057-1154 (from UniProt P23458 1-1056) (domain or fragment)
binding [1]: no binding

phosphatase and tensin homolog (PTEN), endogenous (from UniProt O08586 1-403) (enzyme)
binding [1]: binds

β1-integrin (endogenous) (from UniProt P09055 21-798) (receptor)
binding [1]: no binding

ALFA-tagged JAK1 Δ1072-1154 (from UniProt P23458 1-1071) (domain or fragment)
binding [1]: binds

JAK1 (endogenous, mouse lung endothelial cells) (from UniProt P52332 1-1153) (enzyme)
binding (Cav1(F92A/V94A)-mRFP): no binding | binding (Cav1(W98A)-mRFP): no binding | binding (Cav1(WT)-mRFP): binds | binding [1]: binds

TYK2 (endogenous) (from UniProt Q9R117 1-1184) (enzyme)
binding (Cav1(WT)-mRFP): no binding

B1: endothelial nitric oxide synthase (eNOS), endogenous (enzyme, UniProt P70313 1-1202)
chain: MGNLKSVGQEPGPPCGLGLGLGLGLCGKQGPASPAPEPSQAPAPPSPTRPAPDHSPPLTRPPDGPRFPRVKNWEVGSITYDTLSAQAQQDGPCTSRRCLGSLVFPRKLQSRPTQGPSPTEQLLGQARDFINQYYNSIKRSGSQAHEQRLQEVEAEVAATGTYQLRESELVFGAKQAWRNAPRCVGRIQWGKLQVFDARDCRTAQEMFTYICNHIKYATNRGNLRSAITVFPQRCPGRGDFRIWNSQLIRYAGYRQQDGSVRGDPANVEITELCIQHGWTPGNGRFDVLPLLLQAPDEPPELFTLPPEMVLEVPLEHPTLEWFAALGLRWYALPAVSNMLLEIGGLEFPAAPFSGWYMSSEIGMRDLCDPHRYNILEDVAVCMDLDTRTTSSLWKDKAAVEINVAVLHSYQLAKVTIVDHHAATASFMKHLENEQKARGGCPADWAWIVPPISGSLTPVFHQEMVNYFLSPAFRYQPDPWKGSAAKGAGITRKKTFKEVANAVKISASLMGTVMAKRVKATILYGSETGRAQSYAQQLGRLFRKAFDPRVLCMDEYDVVSLEHEALVLVVTSTFGNGDPPENGESFAAALMEMSGPYNSSPRPEQHKSYKIRFNSVSCSDPLVSSWRRKRKESSNTDSAGALGTLRFCVFGLGSRAYPHFCAFARAVDTRLEELGGERLLQLGQGDELCGQEEAFRGWAQAAFQAACETFCVGEDAKAAARDIFSPKRSWKRQRYRLSTQAESLQLLPGLTHVHRRKMFQATILSVENLQSSKSTRATILVRLDTGGQEGLQYQPGDHIGVCPPNRPGLVEALLSRVEDPPPSTEPVAVEQLEKGSPGGPPPGWVRDPRLPPCTLRQALTYFLDITSPPSPRLLRLLSTLAEESSEQQELEALSQDPRRYEEWKWFSCPTLLEVLEQFPSVALPAPLILTQLPLLQPRYYSVSSAPSAHPGEIHLTIAVLAYRTQDGLGPLHYGVCSTWMSQLKAGDPVPCFIRGAPSFRLPPDPNLPCILVGPGTGIAPFRGFWQDRLHDIEIKGLQPAPMTLVFGCRCSQLDHLYRDEVLDAQQRGVFGQVLTAFSRDPGSPKTYVQDLLRTELAAEVHRVLCLEQGHMFVCGDVTMATSVLQTVQRILATEGGMELDEAGDVIGVLRDQQRYHEDIFGLTLRTQEVTSRIRTQSFSLQERQLRGAVPWSFDPPGPEIPGS
binding [2]: binds

B2: protein tyrosine phosphatase 1B (PTP1B), endogenous (enzyme, UniProt P35821 1-432)
chain: MEMEKEFEEIDKAGNWAAIYQDIRHEASDFPCKVAKLPKNKNRNRYRDVSPFDHSRIKLHQEDNDYINASLIKMEEAQRSYILTQGPLPNTCGHFWEMVWEQKSRGVVMLNRIMEKGSLKCAQYWPQQEEKEMVFDDTGLKLTLISEDVKSYYTVRQLELENLTTKETREILHFHYTTWPDFGVPESPASFLNFLFKVRESGSLSLEHGPIVVHCSAGIGRSGTFCLADTCLLLMDKRKDPSSVDIKKVLLEMRRFRMGLIQTADQLRFSYLAVIEGAKFIMGDSSVQDQWKELSREDLDLPPEHVPPPPRPPKRTLEPHNGKCKELFSSHQWVSEETCGDEDSLAREEGRAQSSAMHSVSSMSPDTEVRRRMVGGGLQSAQASVPTEEELSSTEEEHKAHWPSHWKPFLVNVCMATLLATGAYLCYRVCFH
binding [2]: binds
